## Library screen at single concentrations

Measurements from “University of Dundee, Small-Polar-MMV Screening Library” (2021), ChEMBL document CHEMBL3988442.

Mtb cholesterol medium: 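Phenotypic screen: M. tuberculosis growth, cholesterol and DPPC medium, 4 days; the read-out is not stated. Compounds at 50 µM. Direction is inferred from retests: higher values go with more growth inhibition. About 69,000 compounds were tested under these conditions; 0.54% (about 370) showed 50% or more at least once.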
Mtb glucose medium: 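Growth of Mycobacterium tuberculosis over 3 days (7H9 medium with glucose and tyloxapol); the read-out is not stated. Concentration: 50 µM. Direction is inferred from retests: higher values go with more growth inhibition. About 69,000 compounds were tested under these conditions; 1.1% (about 760) showed 50% or more at least once.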

Values are the deposited “Percent Effect”, in %. The controls that fix the scale are not given in the record; negative values are as filed. Compounds were drawn at random from those tested, without regard to their results. Two or more numbers in one place are separate tests of the same structure; such repeats can differ widely.

structure	Mtb cholesterol medium	Mtb glucose medium
Cc1nc2cc(=O)[nH]n2c(C)c1CNC(=O)C(C)(C)c1ccccc1	14.79	5.245
CN1CCCCC1CC(=O)Nc1ccc2ncn(C)c2c1 (stereo not given)	-34.03 & -1.816	-23.48
[H][C@@]12CN(C(=O)c3cc(=O)[nH]c4ccc(F)cc34)C[C@]1([H])[C@H]2CN(C)C	-41.54	-89.58
COc1cccc(OC)c1-c1ccnc2cc(CC(=O)NC(C)C)nn12	-10.48	50.41
COCCCSc1ccc(NC(=O)Nc2cn[nH]c2)cc1	-13.83	-8.693 & -14.57
CN(C)[C@@H]1CN(C(=O)c2cc3ccc(F)cc3[nH]2)C[C@H]1O	-1.617 & 9.149	-9.491
O=C(O)c1ccc(Cc2cccc(F)c2)nc1	-2.938	-4.781
CCc1nc2n(n1)CC(NCc1cnc(-c3ccccc3)nc1)CC2 (stereo not given)	5.749	-28.43
Cc1noc(C)c1CC(=O)Nc1ccn(CC(N)=O)n1	-0.9364	9.933
COCC(=O)N1CC(c2ccnc(Nc3cc(C(F)(F)F)ccn3)n2)C1	-21.04	-32.07
CCc1noc(CN(C)CCC(=O)Nc2ccc(Cl)cc2)n1	19.59	25.56 & -3.477
CC(O)CN1CCN(Cc2csc(-c3ncccn3)n2)CC1 (stereo not given)	-18.23	-37.5 & -10.37
Cc1nc(NC2CC(C)(C)NC(C)(C)C2)c2c(n1)c(C)nn2C	10.79	-0.0354 & 9.212
Cc1cc(CNC2(c3ccc(Cl)cc3)CC2)no1	17.01	21.42
[H][C@@]12CS(=O)(=O)C[C@]1([H])N(Cc1ncccc1C)CCN2CC(=O)N(C)C	-28.49	-21.09
O=C(NCCc1c[nH]cn1)c1ccc2c(c1)C(=O)N(C1CC1)C2=O	-7.408	-13.09
CCOCCC(=O)Nc1ccnn1-c1ccc(Cl)cc1	-4.429	13.71
CCc1ncc(CNCc2cccnc2N(C)C)cn1	18.78	20.88
Cc1cnc(N)nc1N1CCN(CCCO)CC1	23.83	6.751 & -1.76
Cc1cc(C(=O)NCc2ccco2)nn1C	-10.13	11.93
Cc1nnn2c1COC(CNC(=O)c1cccn1C)C2 (stereo not given)	-8.4	-2.173
CCS(=O)(=O)CCN1CCC(N(C)Cc2noc(C(C)C)n2)C1 (stereo not given)	41.84	11.95
Cc1cc(C(F)(F)F)nc(CNC(=O)CCC2CCCN(C)C2)n1 (stereo not given)	-0.0477	-4.527
CN1CCN(C(=O)c2ccc(=O)n(C)c2)c2ccccc21	-6.535	19.68
[H][C@@]12CCN(Cc3c(C)noc3C)C[C@]1([H])[C@H](C(=O)N1CCCO1)CCO2	-7.596	-15.34 & -2.759
COC(=O)c1cc(OCC2CCC2)cc(C(=O)N[C@@H]2CNCC[C@H]2O)c1	-11.22	1.543 & 3.292
O=C(c1ccc2c(c1)CCC2)N1CCC(c2n[nH]c(C3CC3)n2)CC1	-3.699	26.31
O=C(CC1=CSC2=NCCCN12)N1CCCCCC1c1ccco1 (stereo not given)	-23.07	-4.36 & -52.06
Cc1ccc(C2(CN3CCN(Cc4cnc(C)n4C)CC3)CC2)cc1.Cl	1.284	-28.79
CCC(O)CN1CCN(C(=O)c2ccc(N(C)C)nn2)CC1 (stereo not given)	-7.955	-6.008
COCCN1CCC(CNC(=O)c2c[nH]c(=O)c(Cl)c2)CC1	-10.25	30.82
O=C1NC2(Cc3ccccc31)CN(CC1CCNCC1)C2	-0.7363	1.583
CN(C)CCN1CCCC12CCCN(Cc1ccoc1)C2.O=C(O)C(F)(F)F.O=C(O)C(F)(F)F.O=C(O)C(F)(F)F (stereo not given)	-26.44	-42.24 & -11.98
Cc1nccc(CNC(=O)Nc2cc(C(F)(F)F)c[nH]c2=O)n1	6.468	1.976
CC(c1nc(-c2ccccc2)no1)N1CC(n2cccn2)C1 (stereo not given)	5.118	15.76 & 2.241
CC(c1ccc(-n2cncn2)cc1)N(C)Cc1ccccn1 (stereo not given)	-14.33	-0.8698
Cc1ncsc1CN1CCn2c(COCC3CC3)cnc2C1C.O=C(O)C(F)(F)F (stereo not given)	-13.57	20.82
CS(=O)(=O)Cc1ccccc1NCc1cc(Cl)ccc1Cl	-5.745	33.16
CC(C)n1cc(N2CC(C(=O)N3CCN(C)CC3)CC2=O)cn1 (stereo not given)	-12.27	-30.08 & -7.361
Cc1noc(-c2ccc(N3CCN(Cc4ncccc4C)CC3)nc2)n1	2.124	1.571 & -27.1
CC(C)NC(=O)N1CCC2(CC(=O)N(c3ccsc3)C2)C1 (stereo not given)	-2.578 & 1.143	-13.44
CC(C)Nc1cc(-c2c[nH]nc2C2CCN(C(=O)C3CC3)C2)ccn1 (stereo not given)	-2.9 & 7.262	4.446
CN1CCCC1c1nccnc1-c1ccc(C(=O)O)cc1 (stereo not given)	-24.67	-43.65
CC(c1ccon1)N(C)C(=O)C1CCN(CC(N)=O)CC1 (stereo not given)	-20.97	-6.474
CCN1CC2(CCC1=O)CCN(c1ccc(C(C)=O)cn1)CC2	10.02	16.49 & -2.42
CC(C)Nc1ccc2c(c1)C1(CCOCC1)C(=O)N2c1ccsc1	-12.5	-19.6 & -4.819
Cc1nn(C(C)C)c(C)c1NC(=O)c1ccncc1	3.267	31.34
O=C(NC1CCOCC1)c1cccc(C2CCCNC2)c1 (stereo not given)	-9.392	5.543
COCCCNS(=O)(=O)c1ccc(N2CCCCS2(=O)=O)cc1	-8.592	11.2
O=C(NCCCn1cccn1)C1COCC(=O)N1Cc1ccccc1 (stereo not given)	-0.1884	-1.166 & -6.173
COC(=O)C(C)NCc1ccc2[nH]c(C)c(C)c2c1 (stereo not given)	-17.24	2.423
CCC[C@@H]1CN(Cc2nnc(-c3cccnc3)o2)C[C@H]1NC(C)=O	12.97	15.92
CC(=O)Nc1cc(C2CC2)nn1-c1nc(C)c(C)c(=O)[nH]1	28.25	24.75
O=C(O)C(F)(F)F.c1coc(CN2CCCn3c(nnc3Cn3cccc3)C2)c1	-9.063	4.864
[H][C@@]12CN(CCOC)C[C@]1([H])[C@H](OC)CCN2C(=O)c1cccs1	-8.195	-2.758
CC(C)=CCC1(C(=O)O)CCCN(c2ccnc(N)n2)C1 (stereo not given)	-5.131	25.99
CC(C)(C)OC(=O)N1CCN(c2cccnc2)CC1C(=O)O (stereo not given)	3.392	24.52
CCn1c(CN(C)C)nnc1C1CCN(Cc2cccc(F)c2F)CC1	-6.425 & -0.3761	4.771
O=c1[nH]c(-c2ccccn2)nc2c1CCN(Cc1cccc(O)c1)C2	9.489	8.833
COc1ccccc1NCC(=O)NCc1cc[nH]n1	-0.8921	11.81
Cc1nc(C)n(CC2CN(c3ccc(C#N)cn3)CCO2)n1 (stereo not given)	-3.905	9.235
CN(C)C(=O)c1cnc2n1CCN(Cc1ccc3c(c1)OCO3)C2.O=C(O)C(F)(F)F	-3.257 & -3.777	0.7407
Cc1c(C(=O)N2CC(=O)N(C)C2)nnn1-c1cccc2cccnc12	-10.57	-51.17 & 5.346
Cc1cn(CC(=O)N(C)Cc2cccc3ncccc23)c(=O)[nH]c1=O	3.836 & -6.019	-4.383 & -7.566
CN(Cc1ccc(F)cc1)S(=O)(=O)N1CCOCC1	-2.496	-31.47
COc1ccc(CN2CCc3nc(C4CCCCN4C)ncc3C2)cc1 (stereo not given)	12.98	34.93
Cc1cccc(CN2CCC23CCCNC3)n1 (stereo not given)	-12.52	-8.479
CNC(=O)C1CCCN(c2nc3c(-c4ccccc4)csc3c(=O)[nH]2)C1 (stereo not given)	-14.77	-30.74 & 5.521

The last 8 entries again:

{"structure": "Cc1nc(C)n(CC2CN(c3ccc(C#N)cn3)CCO2)n1", "stereo": "stereo not given", "Mtb cholesterol medium": -3.905, "Mtb glucose medium": 9.235}
{"structure": "CN(C)C(=O)c1cnc2n1CCN(Cc1ccc3c(c1)OCO3)C2.O=C(O)C(F)(F)F", "Mtb cholesterol medium": "-3.257 & -3.777", "Mtb glucose medium": 0.7407}
{"structure": "Cc1c(C(=O)N2CC(=O)N(C)C2)nnn1-c1cccc2cccnc12", "Mtb cholesterol medium": -10.57, "Mtb glucose medium": "-51.17 & 5.346"}
{"structure": "Cc1cn(CC(=O)N(C)Cc2cccc3ncccc23)c(=O)[nH]c1=O", "Mtb cholesterol medium": "3.836 & -6.019", "Mtb glucose medium": "-4.383 & -7.566"}
{"structure": "CN(Cc1ccc(F)cc1)S(=O)(=O)N1CCOCC1", "Mtb cholesterol medium": -2.496, "Mtb glucose medium": -31.47}
{"structure": "COc1ccc(CN2CCc3nc(C4CCCCN4C)ncc3C2)cc1", "stereo": "stereo not given", "Mtb cholesterol medium": 12.98, "Mtb glucose medium": 34.93}
{"structure": "Cc1cccc(CN2CCC23CCCNC3)n1", "stereo": "stereo not given", "Mtb cholesterol medium": -12.52, "Mtb glucose medium": -8.479}
{"structure": "CNC(=O)C1CCCN(c2nc3c(-c4ccccc4)csc3c(=O)[nH]2)C1", "stereo": "stereo not given", "Mtb cholesterol medium": -14.77, "Mtb glucose medium": "-30.74 & 5.521"}